These are yes or no findings as the source states them, for the method shown. In cells and extracts the contact can be indirect. Some entries that bind do so weakly or less than the wild type.
Target: PPARγ (mouse (endogenous in TGEMs and iBMDM)) (UniProt P37238)
Experiment: co-IP; co-immunoprecipitation from TGEMs, endogenous proteins, western blot

Sequences of proteins named here, by UniProt entry; tags and fusion partners are left off.
UniProt P37238: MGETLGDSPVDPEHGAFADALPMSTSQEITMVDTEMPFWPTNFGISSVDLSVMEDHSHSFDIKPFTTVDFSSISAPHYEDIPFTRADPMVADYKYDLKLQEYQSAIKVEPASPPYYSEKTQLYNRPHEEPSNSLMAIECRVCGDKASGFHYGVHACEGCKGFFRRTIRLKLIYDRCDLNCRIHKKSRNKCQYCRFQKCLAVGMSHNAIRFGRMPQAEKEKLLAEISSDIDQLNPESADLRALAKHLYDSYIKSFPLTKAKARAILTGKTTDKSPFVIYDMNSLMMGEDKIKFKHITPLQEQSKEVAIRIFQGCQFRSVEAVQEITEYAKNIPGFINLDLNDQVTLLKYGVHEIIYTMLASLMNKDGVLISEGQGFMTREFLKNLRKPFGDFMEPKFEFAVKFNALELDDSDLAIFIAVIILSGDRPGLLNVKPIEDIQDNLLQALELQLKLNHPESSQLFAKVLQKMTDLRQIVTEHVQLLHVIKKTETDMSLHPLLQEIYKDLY
UniProt P05627: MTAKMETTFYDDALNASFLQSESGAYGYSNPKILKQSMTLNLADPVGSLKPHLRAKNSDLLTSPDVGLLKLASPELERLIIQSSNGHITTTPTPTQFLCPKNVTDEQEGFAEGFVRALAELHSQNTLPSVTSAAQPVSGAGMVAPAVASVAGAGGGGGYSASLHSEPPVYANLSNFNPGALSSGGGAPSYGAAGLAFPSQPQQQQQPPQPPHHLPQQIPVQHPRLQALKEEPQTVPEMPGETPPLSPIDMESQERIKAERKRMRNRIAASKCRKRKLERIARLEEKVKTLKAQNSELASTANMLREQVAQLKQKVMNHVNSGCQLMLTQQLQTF

## Jun (from UniProt P05627 1-334)
  binding: binds

Reference: PMC6345992
